PubChem BioAssay AID1224829 – NIAID | 2016
Purpose: 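Follow-up of TLR4-NF-kappaB regulators using six separate siRNAs for each gene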 (follow-up of hits). Cells: mouse RAW264.7 G9 macrophage reporter cells. Reagent: single siRNA against mouse genes, 100 nM. Duration: 2 days of siRNA knock-down, then 40 min of LPS before fixing. Treatment: LPS (Salmonella minnesota R595) at 10 ng/ml. Measured: 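Imaging of GFP-p65 after 40 min of LPS; nuclear over perinuclear ring intensity ratio, scaled to plate median and non-targeting control wells, given as z-score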. Scale: p65 translocation z-score: higher = more nuclear NF-kappaB p65 after LPS. Active means: 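An siRNA is called active when the mean z-score of its two replicates is above 2 or below -2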. Calls: active = changed p65 translocation (either direction); inactive = no clear change.
In all, the deposit lists about 3,800 reagents; below is a random part of them. 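Calls cover raised and lowered translocation; gene median uses one vendor's three siRNAs; qiagen siRNAs acted more weakly than ambion siRNAs.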 Unmarked entries are inactive. Reagents against one gene are numbered here. Further read-outs or replicates are left out here.

target	reagent	siRNA vendor or control pool	p65 translocation z-score, replicate mean
Rnf8 (ring finger protein 8)	1	ambion single siRNA	-2.92 (active)
Rnf8 (ring finger protein 8)	2	ambion single siRNA	-3.71 (active)
Rnf8 (ring finger protein 8)	3	ambion single siRNA	-2.68 (active)
Rnf8 (ring finger protein 8)	4	qiagen single siRNA	-0.354
Rnf8 (ring finger protein 8)	5	qiagen single siRNA	-0.663
Rnf8 (ring finger protein 8)	6	qiagen single siRNA	-1.04
Polr1c (polymerase (RNA) I polypeptide C)	1	ambion single siRNA	-4.02 (active)
Polr1c (polymerase (RNA) I polypeptide C)	2	ambion single siRNA	-4.64 (active)
Polr1c (polymerase (RNA) I polypeptide C)	3	ambion single siRNA	-2.66 (active)
Polr1c (polymerase (RNA) I polypeptide C)	4	qiagen single siRNA	1.59
Polr1c (polymerase (RNA) I polypeptide C)	5	qiagen single siRNA	1.25
Polr1c (polymerase (RNA) I polypeptide C)	6	qiagen single siRNA	0.497
Or52u1 (olfactory receptor family 52 subfamily U member 1)	1	ambion single siRNA	0.948
Or52u1 (olfactory receptor family 52 subfamily U member 1)	2	ambion single siRNA	-1.74
Or52u1 (olfactory receptor family 52 subfamily U member 1)	3	ambion single siRNA	-3.4 (active)
Or52u1 (olfactory receptor family 52 subfamily U member 1)	4	qiagen single siRNA	2.65 (active)
Or52u1 (olfactory receptor family 52 subfamily U member 1)	5	qiagen single siRNA	-0.323
Or52u1 (olfactory receptor family 52 subfamily U member 1)	6	qiagen single siRNA	-0.24
Rlim (ring finger protein, LIM domain interacting)	1	ambion single siRNA	-0.57
Rlim (ring finger protein, LIM domain interacting)	2	ambion single siRNA	-2.55 (active)
Rlim (ring finger protein, LIM domain interacting)	3	ambion single siRNA	-4.87 (active)
Rlim (ring finger protein, LIM domain interacting)	4	qiagen single siRNA	2.12 (active)
Rlim (ring finger protein, LIM domain interacting)	5	qiagen single siRNA	1.29
Rlim (ring finger protein, LIM domain interacting)	6	qiagen single siRNA	0.0416
Rnf126 (ring finger protein 126)	1	ambion single siRNA	-1.6
Rnf126 (ring finger protein 126)	2	ambion single siRNA	-5.08 (active)
Rnf126 (ring finger protein 126)	3	ambion single siRNA	-5.25 (active)
Rnf126 (ring finger protein 126)	4	qiagen single siRNA	2.01 (active)
Rnf126 (ring finger protein 126)	5	qiagen single siRNA	-2.55 (active)
Rnf126 (ring finger protein 126)	6	qiagen single siRNA	0.926
Twist1 (twist basic helix-loop-helix transcription factor 1)	1	ambion single siRNA	-0.339
Twist1 (twist basic helix-loop-helix transcription factor 1)	2	ambion single siRNA	-1.03
Twist1 (twist basic helix-loop-helix transcription factor 1)	3	ambion single siRNA	-0.932
Twist1 (twist basic helix-loop-helix transcription factor 1)	4	qiagen single siRNA	1.68
Twist1 (twist basic helix-loop-helix transcription factor 1)	5	qiagen single siRNA	-1.01
Twist1 (twist basic helix-loop-helix transcription factor 1)	6	qiagen single siRNA	-2.91 (active)
Inpp5b (inositol polyphosphate-5-phosphatase B)	1	ambion single siRNA	-2.66 (active)
Inpp5b (inositol polyphosphate-5-phosphatase B)	2	ambion single siRNA	-1.66
Inpp5b (inositol polyphosphate-5-phosphatase B)	3	ambion single siRNA	0.699
Inpp5b (inositol polyphosphate-5-phosphatase B)	4	qiagen single siRNA	0.697
Inpp5b (inositol polyphosphate-5-phosphatase B)	5	qiagen single siRNA	-0.493
Inpp5b (inositol polyphosphate-5-phosphatase B)	6	qiagen single siRNA	-2.06 (active)
Snrnp40 (small nuclear ribonucleoprotein 40 (U5))	1	ambion single siRNA	-2.31 (active)
Snrnp40 (small nuclear ribonucleoprotein 40 (U5))	2	ambion single siRNA	-2.7 (active)
Snrnp40 (small nuclear ribonucleoprotein 40 (U5))	3	ambion single siRNA	-1.21
Snrnp40 (small nuclear ribonucleoprotein 40 (U5))	4	qiagen single siRNA	0.559
Snrnp40 (small nuclear ribonucleoprotein 40 (U5))	5	qiagen single siRNA	2.65 (active)
Snrnp40 (small nuclear ribonucleoprotein 40 (U5))	6	qiagen single siRNA	-0.466
Ppm1a (protein phosphatase 1A, magnesium dependent, alpha isoform)	1	ambion single siRNA	-1.69
Ppm1a (protein phosphatase 1A, magnesium dependent, alpha isoform)	2	ambion single siRNA	-0.966
Ppm1a (protein phosphatase 1A, magnesium dependent, alpha isoform)	3	ambion single siRNA	-1.82
Ppm1a (protein phosphatase 1A, magnesium dependent, alpha isoform)	4	qiagen single siRNA	1.45
Ppm1a (protein phosphatase 1A, magnesium dependent, alpha isoform)	5	qiagen single siRNA	-1.27
Ppm1a (protein phosphatase 1A, magnesium dependent, alpha isoform)	6	qiagen single siRNA	-2.83 (active)
Lmcd1 (LIM and cysteine-rich domains 1)	1	ambion single siRNA	1.16
Lmcd1 (LIM and cysteine-rich domains 1)	2	ambion single siRNA	-1.18
Lmcd1 (LIM and cysteine-rich domains 1)	3	ambion single siRNA	-4.86 (active)
Lmcd1 (LIM and cysteine-rich domains 1)	4	qiagen single siRNA	2.58 (active)
Lmcd1 (LIM and cysteine-rich domains 1)	5	qiagen single siRNA	-1.27
Lmcd1 (LIM and cysteine-rich domains 1)	6	qiagen single siRNA	0.199
Pate6 (prostate and testis expressed 6)	1	ambion single siRNA	0.447
Pate6 (prostate and testis expressed 6)	2	ambion single siRNA	-1.64
Pate6 (prostate and testis expressed 6)	3	ambion single siRNA	-4.55 (active)
Pate6 (prostate and testis expressed 6)	4	qiagen single siRNA	1.27
Pate6 (prostate and testis expressed 6)	5	qiagen single siRNA	1.75
Pate6 (prostate and testis expressed 6)	6	qiagen single siRNA	-1.12

11 entries from above, ordered by “p65 translocation z-score, replicate mean”, descending.
target	reagent	siRNA vendor or control pool	p65 translocation z-score, replicate mean
Lmcd1 (LIM and cysteine-rich domains 1)	4	qiagen single siRNA	2.58 (active)
Pate6 (prostate and testis expressed 6)	5	qiagen single siRNA	1.75
Pate6 (prostate and testis expressed 6)	4	qiagen single siRNA	1.27
Lmcd1 (LIM and cysteine-rich domains 1)	1	ambion single siRNA	1.16
Pate6 (prostate and testis expressed 6)	1	ambion single siRNA	0.447
Lmcd1 (LIM and cysteine-rich domains 1)	6	qiagen single siRNA	0.199
Lmcd1 (LIM and cysteine-rich domains 1)	2	ambion single siRNA	-1.18
Lmcd1 (LIM and cysteine-rich domains 1)	5	qiagen single siRNA	-1.27
Pate6 (prostate and testis expressed 6)	2	ambion single siRNA	-1.64
Pate6 (prostate and testis expressed 6)	3	ambion single siRNA	-4.55 (active)
Lmcd1 (LIM and cysteine-rich domains 1)	3	ambion single siRNA	-4.86 (active)
